# At least one structure is not confirmed: it was looked up by name or label, or the drawing left a doubt.
# Experiment: Solubilities of active ingredients in carvacrol or carvacrol-containing (or thymol) formulations
# Format: physicochemical
# From the text: The mixing ratios are always given as volume proportions. Liqui-Patch® are formulations of ready-to-use mixtures of polymers and other additives for making transdermal systems and are obtainable from the company epinamics GmbH. In the formulation employed here, Liqui-Patch® contains the following components: mixture of 10 g triethyl citrate, 100 g water (demineralized or medical), 100 g DynamX®, 790 g ethanol.
structure (smiles),measurement,setting,value
C=CC1=C(C)c2cc3[nH]c(cc4nc(cc5[nH]c(cc1n2)c(C)c5CCC(=O)O)C(CCC(=O)O)=C4C)c(C)c3C=C [Protoporphyrin IX],Dissolved amount,solvent: Carvacrol,64 mg/mL
C[C@@H]1O[C@@H](OC[C@H]2O[C@@H](Oc3c(-c4ccc(O)c(O)c4)oc4cc(O)cc(O)c4c3=O)[C@H](O)[C@@H](O)[C@@H]2O)[C@H](O)[C@H](O)[C@H]1O [Rutin],Dissolved amount,"solvent: Carvacrol/Methanol (1:1), volume proportions",20 mg/mL
CCC(C)n1ncn(-c2ccc(N3CCN(c4ccc(OCC5COC(Cn6cncn6)(c6ccc(Cl)cc6Cl)O5)cc4)CC3)cc2)c1=O (stereo not drawn) [Itraconazole],Dissolved amount,solvent: Carvacrol (after heating),300 mg/mL

# Source: patent US20160317661A1, “DERMAL AND/OR TRANSDERMAL PHARMACEUTICAL COMPOSITION CONTAINING A TERPENOID COMPOUND” (EPINAMICS GMBH, priority 2013, published 2016)
